From paper PMC11166204, “Mapping the global interactome of the ARF family reveals spatial organization in cellular signaling pathways” (Journal of Cell Science, 2024) come the findings set out here.

Protein sequences, listed by entry. Tags and fused reporters are not part of them. Lines headed by an entry give the natural chain unless they say otherwise; changes in a name come on top.
UniProt P84077: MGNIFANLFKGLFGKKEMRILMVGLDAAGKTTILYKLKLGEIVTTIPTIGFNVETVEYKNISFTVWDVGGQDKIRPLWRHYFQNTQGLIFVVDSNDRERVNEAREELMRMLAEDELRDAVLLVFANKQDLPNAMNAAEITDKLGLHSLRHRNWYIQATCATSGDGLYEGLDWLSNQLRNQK
UniProt Q5H913: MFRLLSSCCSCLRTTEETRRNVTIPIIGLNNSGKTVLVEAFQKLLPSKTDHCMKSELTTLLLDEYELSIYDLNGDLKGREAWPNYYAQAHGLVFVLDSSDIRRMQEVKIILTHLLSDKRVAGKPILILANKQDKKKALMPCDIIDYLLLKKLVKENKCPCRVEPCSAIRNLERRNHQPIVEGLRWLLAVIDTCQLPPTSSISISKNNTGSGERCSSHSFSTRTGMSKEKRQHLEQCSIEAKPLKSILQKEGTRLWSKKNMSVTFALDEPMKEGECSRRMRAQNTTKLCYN
UniProt Q9NVJ2: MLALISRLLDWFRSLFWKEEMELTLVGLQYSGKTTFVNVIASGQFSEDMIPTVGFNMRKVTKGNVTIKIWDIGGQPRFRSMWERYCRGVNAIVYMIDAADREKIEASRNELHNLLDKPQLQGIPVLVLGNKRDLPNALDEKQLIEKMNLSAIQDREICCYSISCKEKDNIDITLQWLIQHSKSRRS
UniProt Q8TB45: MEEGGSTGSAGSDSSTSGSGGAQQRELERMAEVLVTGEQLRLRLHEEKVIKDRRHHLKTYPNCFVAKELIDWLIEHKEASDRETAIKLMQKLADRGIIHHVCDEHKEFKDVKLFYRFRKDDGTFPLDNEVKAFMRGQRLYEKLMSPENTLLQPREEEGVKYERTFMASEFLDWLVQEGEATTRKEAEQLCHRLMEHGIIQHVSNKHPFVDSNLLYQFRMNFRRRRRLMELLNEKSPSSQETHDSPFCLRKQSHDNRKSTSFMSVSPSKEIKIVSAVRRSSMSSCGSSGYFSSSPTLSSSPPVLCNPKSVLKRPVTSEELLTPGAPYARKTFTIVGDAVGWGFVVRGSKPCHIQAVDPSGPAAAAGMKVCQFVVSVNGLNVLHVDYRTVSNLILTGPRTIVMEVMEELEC
UniProt Q7Z3U7: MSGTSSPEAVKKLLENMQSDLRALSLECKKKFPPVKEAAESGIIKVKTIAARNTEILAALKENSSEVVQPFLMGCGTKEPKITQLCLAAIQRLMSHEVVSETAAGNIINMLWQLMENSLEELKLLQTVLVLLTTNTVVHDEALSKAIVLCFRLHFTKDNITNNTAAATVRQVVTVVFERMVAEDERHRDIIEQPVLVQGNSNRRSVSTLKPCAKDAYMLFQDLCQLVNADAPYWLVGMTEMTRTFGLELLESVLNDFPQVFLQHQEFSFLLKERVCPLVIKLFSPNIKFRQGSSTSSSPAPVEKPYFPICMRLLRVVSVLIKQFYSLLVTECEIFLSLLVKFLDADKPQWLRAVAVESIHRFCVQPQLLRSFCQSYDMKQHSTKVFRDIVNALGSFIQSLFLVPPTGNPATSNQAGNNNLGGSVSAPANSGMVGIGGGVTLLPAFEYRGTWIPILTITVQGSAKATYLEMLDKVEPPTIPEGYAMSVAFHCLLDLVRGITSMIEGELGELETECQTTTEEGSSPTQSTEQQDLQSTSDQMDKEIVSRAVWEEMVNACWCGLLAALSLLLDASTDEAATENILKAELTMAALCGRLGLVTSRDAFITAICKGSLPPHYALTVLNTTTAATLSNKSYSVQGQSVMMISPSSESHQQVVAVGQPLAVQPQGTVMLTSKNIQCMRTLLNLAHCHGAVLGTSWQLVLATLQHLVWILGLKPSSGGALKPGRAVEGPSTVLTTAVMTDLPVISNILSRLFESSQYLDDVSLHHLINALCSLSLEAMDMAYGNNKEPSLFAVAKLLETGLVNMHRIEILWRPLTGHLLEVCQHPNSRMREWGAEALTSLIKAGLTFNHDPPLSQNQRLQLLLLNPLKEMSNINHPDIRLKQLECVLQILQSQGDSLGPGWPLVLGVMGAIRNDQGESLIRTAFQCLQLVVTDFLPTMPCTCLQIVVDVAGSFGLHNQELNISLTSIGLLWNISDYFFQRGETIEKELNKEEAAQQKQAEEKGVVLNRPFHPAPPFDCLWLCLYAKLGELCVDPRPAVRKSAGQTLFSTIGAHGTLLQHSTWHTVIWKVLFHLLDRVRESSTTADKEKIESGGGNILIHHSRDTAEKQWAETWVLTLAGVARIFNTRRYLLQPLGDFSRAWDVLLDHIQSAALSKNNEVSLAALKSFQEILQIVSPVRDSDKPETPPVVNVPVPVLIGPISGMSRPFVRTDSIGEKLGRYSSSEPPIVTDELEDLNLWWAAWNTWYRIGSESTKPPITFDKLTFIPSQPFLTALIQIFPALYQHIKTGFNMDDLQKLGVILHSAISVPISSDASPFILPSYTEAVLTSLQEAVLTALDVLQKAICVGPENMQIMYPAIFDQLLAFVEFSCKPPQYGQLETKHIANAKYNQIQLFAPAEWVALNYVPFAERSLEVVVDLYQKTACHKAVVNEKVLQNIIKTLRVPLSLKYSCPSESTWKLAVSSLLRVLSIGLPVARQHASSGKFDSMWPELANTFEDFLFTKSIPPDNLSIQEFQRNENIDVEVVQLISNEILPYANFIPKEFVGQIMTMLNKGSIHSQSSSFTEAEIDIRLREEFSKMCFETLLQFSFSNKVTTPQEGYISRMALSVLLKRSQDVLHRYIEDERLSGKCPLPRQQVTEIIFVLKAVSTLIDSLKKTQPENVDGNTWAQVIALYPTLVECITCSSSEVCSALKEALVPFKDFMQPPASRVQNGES

One assay concerns the target T1, WT ARL10–GFP (human) (UniProt Q8N8L6).
T1 sequence: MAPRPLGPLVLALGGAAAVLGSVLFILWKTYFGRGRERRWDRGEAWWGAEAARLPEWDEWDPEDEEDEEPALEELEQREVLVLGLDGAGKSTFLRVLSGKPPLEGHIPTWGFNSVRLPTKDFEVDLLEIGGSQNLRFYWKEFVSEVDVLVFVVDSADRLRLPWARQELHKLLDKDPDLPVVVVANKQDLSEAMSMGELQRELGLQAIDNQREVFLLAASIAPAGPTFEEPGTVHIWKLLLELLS
In words: affinity purification with mass spectrometry; ARL10–GFP (WT or active mutant) from Flp-In HeLa cells lysed in 0.5% digitonin buffer, GFP-selector resin 2 h at 4°C, on-bead digestion, MS.

Assay [1] addresses T2, constitutively active ARL10 (S132L)–BirA*–Flag (human) (UniProt Q8N8L6).
T2 sequence: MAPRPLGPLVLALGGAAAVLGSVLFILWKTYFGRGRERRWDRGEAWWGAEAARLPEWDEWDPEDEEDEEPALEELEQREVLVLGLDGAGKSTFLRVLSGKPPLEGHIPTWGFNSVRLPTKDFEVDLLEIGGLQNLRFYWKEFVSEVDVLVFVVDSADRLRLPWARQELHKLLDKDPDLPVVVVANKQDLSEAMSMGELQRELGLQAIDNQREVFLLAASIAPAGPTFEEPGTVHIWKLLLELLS
The assay is described as follows: proximity labelling; BioID: constitutively active ARF/ARL bait with C-terminal BirA*–Flag, tetracycline-induced in Flp-In T-REx HEK293 and Flp-In T-REx HeLa cells, 50 µM biotin, 24 h labelling; RIPA lysis, streptavidin beads, on-bead trypsin, MS; SAINT AvgP ≥0.95 with AvgSpec and CAAX-ratio filters.

For assay [2], the target named is T3, constitutively active ARL14 (Q68L)–BirA*–Flag (human) (UniProt Q8N4G2).
T3 sequence: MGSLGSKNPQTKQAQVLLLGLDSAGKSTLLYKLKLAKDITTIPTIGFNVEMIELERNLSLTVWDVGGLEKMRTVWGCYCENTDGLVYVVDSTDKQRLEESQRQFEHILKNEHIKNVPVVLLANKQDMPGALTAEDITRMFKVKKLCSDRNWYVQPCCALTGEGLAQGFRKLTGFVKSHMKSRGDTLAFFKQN
The assay is described as above.

Assay [3] has as its target constitutively active ARF1 (Q71L)–BirA*–Flag (human) (UniProt P84077). The description is as above.
Assay [4] deals with T4, constitutively active ARL4D (Q80L)–BirA*–Flag (human) (UniProt P49703).
T4 sequence: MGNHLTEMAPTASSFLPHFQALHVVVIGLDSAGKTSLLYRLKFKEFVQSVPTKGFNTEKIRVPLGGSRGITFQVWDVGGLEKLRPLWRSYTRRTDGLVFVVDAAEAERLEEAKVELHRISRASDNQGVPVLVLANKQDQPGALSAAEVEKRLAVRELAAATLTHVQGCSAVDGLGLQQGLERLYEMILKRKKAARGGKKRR
The description is as above.

Assay [5] deals with constitutively active ARL13A–BirA*–Flag (human) (UniProt Q5H913). The description is as above.
Assay [6] has as its target constitutively active ARL8B–BirA*–Flag (human) (UniProt Q9NVJ2). The description is as above.

These are yes or no findings as the source states them, for the method shown. Binding seen in cells or lysates may run through a third protein. A yes stands for co-enrichment or nearness to the bait. Other partners may have been found. For some assays here: A no says only that the protein was not detected with the bait. For some assays here: Tags and fused reporters may be left off the sequences shown.

In the case of DEPTOR (from UniProt Q8TB45 1-409), the binding result with WT ARL10–GFP (human) was “no binding”.

Take MON2 (from UniProt Q7Z3U7 1-1717): the binding result in assay [1] was “binds”.

B1: phospholipase D1 (PLD1), endogenous (enzyme, UniProt Q13393 1-1074)
chain: MSLKNEPRVNTSALQKIAADMSNIIENLDTRELHFEGEEVDYDVSPSDPKIQEVYIPFSAIYNTQGFKEPNIQTYLSGCPIKAQVLEVERFTSTTRVPSINLYTIELTHGEFKWQVKRKFKHFQEFHRELLKYKAFIRIPIPTRRHTFRRQNVREEPREMPSLPRSSENMIREEQFLGRRKQLEDYLTKILKMPMYRNYHATTEFLDISQLSFIHDLGPKGIEGMIMKRSGGHRIPGLNCCGQGRACYRWSKRWLIVKDSFLLYMKPDSGAIAFVLLVDKEFKIKVGKKETETKYGIRIDNLSRTLILKCNSYRHARWWGGAIEEFIQKHGTNFLKDHRFGSYAAIQENALAKWYVNAKGYFEDVANAMEEANEEIFITDWWLSPEIFLKRPVVEGNRWRLDCILKRKAQQGVRIFIMLYKEVELALGINSEYTKRTLMRLHPNIKVMRHPDHVSSTVYLWAHHEKLVIIDQSVAFVGGIDLAYGRWDDNEHRLTDVGSVKRVTSGPSLGSLPPAAMESMESLRLKDKNEPVQNLPIQKSIDDVDSKLKGIGKPRKFSKFSLYKQLHRHHLHDADSISSIDSTSSYFNHYRSHHNLIHGLKPHFKLFHPSSESEQGLTRPHADTGSIRSLQTGVGELHGETRFWHGKDYCNFVFKDWVQLDKPFADFIDRYSTPRMPWHDIASAVHGKAARDVARHFIQRWNFTKIMKSKYRSLSYPFLLPKSQTTAHELRYQVPGSVHANVQLLRSAADWSAGIKYHEESIHAAYVHVIENSRHYIYIENQFFISCADDKVVFNKIGDAIAQRILKAHRENQKYRVYVVIPLLPGFEGDISTGGGNALQAIMHFNYRTMCRGENSILGQLKAELGNQWINYISFCGLRTHAELEGNLVTELIYVHSKLLIADDNTVIIGSANINDRSMLGKRDSEMAVIVQDTETVPSVMDGKEYQAGRFARGLRLQCFRVVLGYLDDPSEDIQDPVSDKFFKEVWVSTAARNATIYDKVFRCLPNDEVHNLIQLRDFINKPVLAKEDPIRAEEELKKIRGFLVQFPFYFLSEESLLPSVGTKEAIVPMEVWT
In the case of B1, the binding entry in assay [2] and in assay [3] was “binds” in each case.

B2: POP1 (protein, UniProt Q99575 1-1024)
chain: MSNAKERKHAKKMRNQPTNVTLSSGFVADRGVKHHSGGEKPFQAQKQEPHPGTSRQRQTRVNPHSLPDPEVNEQSSSKGMFRKKGGWKAGPEGTSQEIPKYITASTFAQARAAEISAMLKAVTQKSSNSLVFQTLPRHMRRRAMSHNVKRLPRRLQEIAQKEAEKAVHQKKEHSKNKCHKARRCHMNRTLEFNRRQKKNIWLETHIWHAKRFHMVKKWGYCLGERPTVKSHRACYRAMTNRCLLQDLSYYCCLELKGKEEEILKALSGMCNIDTGLTFAAVHCLSGKRQGSLVLYRVNKYPREMLGPVTFIWKSQRTPGDPSESRQLWIWLHPTLKQDILEEIKAACQCVEPIKSAVCIADPLPTPSQEKSQTELPDEKIGKKRKRKDDGENAKPIKKIIGDGTRDPCLPYSWISPTTGIIISDLTMEMNRFRLIGPLSHSILTEAIKAASVHTVGEDTEETPHRWWIETCKKPDSVSLHCRQEAIFELLGGITSPAEIPAGTILGLTVGDPRINLPQKKSKALPNPEKCQDNEKVRQLLLEGVPVECTHSFIWNQDICKSVTENKISDQDLNRMRSELLVPGSQLILGPHESKIPILLIQQPGKVTGEDRLGWGSGWDVLLPKGWGMAFWIPFIYRGVRVGGLKESAVHSQYKRSPNVPGDFPDCPAGMLFAEEQAKNLLEKYKRRPPAKRPNYVKLGTLAPFCCPWEQLTQDWESRVQAYEEPSVASSPNGKESDLRRSEVPCAPMPKKTHQPSDEVGTSIEHPREAEEVMDAGCQESAGPERITDQEASENHVAATGSHLCVLRSRKLLKQLSAWCGPSSEDSRGGRRAPGRGQQGLTREACLSILGHFPRALVWVSLSLLSKGSPEPHTMICVPAKEDFLQLHEDWHYCGPQESKHSDPFRSKILKQKEKKKREKRQKPGRASSDGPAGEEPVAGQEALTLGLWSGPLPRVTLHCSRTLLGFVTQGDFSMAVGCGEALGFVSLTGLLDMLSSQPAAQRGLVLLRPPASLQYRFARIAIEV
For the molecule B2, in assay [4], the binding entry is “binds”.

B3: AGFG1 (protein, UniProt P52594 1-562)
chain: MAASAKRKQEEKHLKMLRDMTGLPHNRKCFDCDQRGPTYVNMTVGSFVCTSCSGSLRGLNPPHRVKSISMTTFTQQEIEFLQKHGNEVCKQIWLGLFDDRSSAIPDFRDPQKVKEFLQEKYEKKRWYVPPEQAKVVASVHASISGSSASSTSSTPEVKPLKSLLGDSAPTLHLNKGTPSQSPVVGRSQGQQQEKKQFDLLSDLGSDIFAAPAPQSTATANFANFAHFNSHAAQNSANADFANFDAFGQSSGSSNFGGFPTASHSPFQPQTTGGSAASVNANFAHFDNFPKSSSADFGTFNTSQSHQTASAVSKVSTNKAGLQTADKYAALANLDNIFSAGQGGDQGSGFGTTGKAPVGSVVSVPSQSSASSDKYAALAELDSVFSSAATSSNAYTSTSNASSNVFGTVPVVASAQTQPASSSVPAPFGATPSTNPFVAAAGPSVASSTNPFQTNARGATAATFGTASMSMPTGFGTPAPYSLPTSFSGSFQQPAFPAQAAFPQQTAFSQQPNGAGFAAFGQTKPVVTPFGQVAAAGVSSNPFMTGAPTGQFPTGSSSTNPFL
Consider B3, for which the binding entry in assay [5], in assay [3] and in assay [6] was “binds” throughout.
